Assay results taken from PMC12231567.

T1: αKNL2 (KINETOCHORE NULL2), full length, fused to the GAL4 DNA-binding domain (Arabidopsis thaliana) (UniProt F4KCE9)
T1 sequence: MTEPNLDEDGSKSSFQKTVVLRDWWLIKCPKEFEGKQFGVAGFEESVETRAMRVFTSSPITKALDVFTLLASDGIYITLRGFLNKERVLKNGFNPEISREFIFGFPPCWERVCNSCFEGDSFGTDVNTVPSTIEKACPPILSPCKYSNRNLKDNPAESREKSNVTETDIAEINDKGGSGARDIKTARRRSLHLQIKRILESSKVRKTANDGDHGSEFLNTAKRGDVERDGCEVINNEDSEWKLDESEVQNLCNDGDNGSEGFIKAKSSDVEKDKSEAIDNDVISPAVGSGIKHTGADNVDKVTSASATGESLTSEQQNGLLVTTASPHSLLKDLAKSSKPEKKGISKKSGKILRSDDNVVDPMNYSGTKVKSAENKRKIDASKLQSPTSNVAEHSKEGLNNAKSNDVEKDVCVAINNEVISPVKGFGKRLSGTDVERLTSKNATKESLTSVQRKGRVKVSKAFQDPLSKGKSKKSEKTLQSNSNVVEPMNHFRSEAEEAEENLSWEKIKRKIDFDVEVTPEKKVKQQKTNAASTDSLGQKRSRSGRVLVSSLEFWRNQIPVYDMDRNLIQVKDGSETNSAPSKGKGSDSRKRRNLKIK

T2: αKNL2-C (C-terminal fragment of αKNL2, 364 to 599 aa) fused to the GAL4 DNA-binding domain (Arabidopsis thaliana) (UniProt F4KCE9)
T2 sequence: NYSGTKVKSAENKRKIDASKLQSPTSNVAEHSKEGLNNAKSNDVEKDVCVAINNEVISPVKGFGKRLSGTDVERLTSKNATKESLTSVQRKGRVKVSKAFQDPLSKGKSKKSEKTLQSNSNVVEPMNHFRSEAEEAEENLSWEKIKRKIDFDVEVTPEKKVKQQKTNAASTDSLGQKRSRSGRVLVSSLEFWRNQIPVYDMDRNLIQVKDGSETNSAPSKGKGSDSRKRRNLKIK

T3: αKNL2-N (N-terminal fragment of αKNL2, 1 to 363 aa) fused to the GAL4 DNA-binding domain (Arabidopsis thaliana) (UniProt F4KCE9)
T3 sequence: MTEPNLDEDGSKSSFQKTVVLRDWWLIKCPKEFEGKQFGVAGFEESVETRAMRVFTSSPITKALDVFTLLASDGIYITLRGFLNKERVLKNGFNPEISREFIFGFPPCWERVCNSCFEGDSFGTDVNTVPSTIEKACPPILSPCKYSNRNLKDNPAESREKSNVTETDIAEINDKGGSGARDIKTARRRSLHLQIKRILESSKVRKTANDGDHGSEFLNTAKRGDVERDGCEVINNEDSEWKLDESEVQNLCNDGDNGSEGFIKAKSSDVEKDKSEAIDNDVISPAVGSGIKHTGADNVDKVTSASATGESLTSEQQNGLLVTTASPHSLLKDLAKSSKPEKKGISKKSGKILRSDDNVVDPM


Tests used:
[1] = target: T1, αKNL2 (KINETOCHORE NULL2), full length, fused to the GAL4 DNA-binding domain (Arabidopsis thaliana); assay: two-hybrid; cotransformation of pGBKT7 (BD, bait) and pGADT7 (AD, prey) into S. cerevisiae Y2H Gold; drop dilutions on -LT and -LTH (triple dropout) medium, 30 °C
[2] = target: T2, αKNL2-C (C-terminal fragment of αKNL2, 364 to 599 aa) fused to the GAL4 DNA-binding domain (Arabidopsis thaliana); assay: as above
[3] = target: T3, αKNL2-N (N-terminal fragment of αKNL2, 1 to 363 aa) fused to the GAL4 DNA-binding domain (Arabidopsis thaliana); assay: as above
[4] = target: CDH1.1 fused to a Venus fragment (BiFC) (Arabidopsis thaliana); assay: split reporter; BiFC in N. benthamiana leaves co-infiltrated with A. tumefaciens GV3101 carrying the VENn and VENc fusions (both directions) and HC-Pro; Venus fluorescence in nuclei; some combinations also scored after MG115

Molecule	binding [1]	binding [2]	binding [3]	binding [4]
CDH1.1 fused to the GAL4 activation domain (Arabidopsis thaliana)	no binding	no binding	no binding	–
αKNL2-N (1 to 363 aa) fused to a Venus fragment (BiFC) (domain or fragment, UniProt F4KCE9 1-363) MTEPNLDEDGSKSSFQKTVVLRDWWLIKCPKEFEGKQFGVAGFEESVETRAMRVFTSSPITKALDVFTLLASDGIYITLRGFLNKERVLKNGFNPEISREFIFGFPPCWERVCNSCFEGDSFGTDVNTVPSTIEKACPPILSPCKYSNRNLKDNPAESREKSNVTETDIAEINDKGGSGARDIKTARRRSLHLQIKRILESSKVRKTANDGDHGSEFLNTAKRGDVERDGCEVINNEDSEWKLDESEVQNLCNDGDNGSEGFIKAKSSDVEKDKSEAIDNDVISPAVGSGIKHTGADNVDKVTSASATGESLTSEQQNGLLVTTASPHSLLKDLAKSSKPEKKGISKKSGKILRSDDNVVDPM	–	–	–	no binding
αKNL2-C (364 to 599 aa) fused to a Venus fragment and cMYC (BiFC and Co-IP) (domain or fragment, UniProt F4KCE9 364-598) NYSGTKVKSAENKRKIDASKLQSPTSNVAEHSKEGLNNAKSNDVEKDVCVAINNEVISPVKGFGKRLSGTDVERLTSKNATKESLTSVQRKGRVKVSKAFQDPLSKGKSKKSEKTLQSNSNVVEPMNHFRSEAEEAEENLSWEKIKRKIDFDVEVTPEKKVKQQKTNAASTDSLGQKRSRSGRVLVSSLEFWRNQIPVYDMDRNLIQVKDGSETNSAPSKGKGSDSRKRRNLKIK	–	–	–	no binding
αKNL2, full length, fused to a Venus fragment (BiFC) (protein, UniProt F4KCE9 1-598) MTEPNLDEDGSKSSFQKTVVLRDWWLIKCPKEFEGKQFGVAGFEESVETRAMRVFTSSPITKALDVFTLLASDGIYITLRGFLNKERVLKNGFNPEISREFIFGFPPCWERVCNSCFEGDSFGTDVNTVPSTIEKACPPILSPCKYSNRNLKDNPAESREKSNVTETDIAEINDKGGSGARDIKTARRRSLHLQIKRILESSKVRKTANDGDHGSEFLNTAKRGDVERDGCEVINNEDSEWKLDESEVQNLCNDGDNGSEGFIKAKSSDVEKDKSEAIDNDVISPAVGSGIKHTGADNVDKVTSASATGESLTSEQQNGLLVTTASPHSLLKDLAKSSKPEKKGISKKSGKILRSDDNVVDPMNYSGTKVKSAENKRKIDASKLQSPTSNVAEHSKEGLNNAKSNDVEKDVCVAINNEVISPVKGFGKRLSGTDVERLTSKNATKESLTSVQRKGRVKVSKAFQDPLSKGKSKKSEKTLQSNSNVVEPMNHFRSEAEEAEENLSWEKIKRKIDFDVEVTPEKKVKQQKTNAASTDSLGQKRSRSGRVLVSSLEFWRNQIPVYDMDRNLIQVKDGSETNSAPSKGKGSDSRKRRNLKIK	–	–	–	no binding

No constants are given. Whether binding was seen depends on the method and setting. For part of these data: Binding seen in cells or lysates may run through a third protein. Tags and fused reporters may be left off the sequences shown.
